The target in assay [1] is T1, Arginase-1 (endogenous, mouse) (mouse (endogenous in mouse macrophage cell line and BV2)) (UniProt Q61176).
T1 sequence: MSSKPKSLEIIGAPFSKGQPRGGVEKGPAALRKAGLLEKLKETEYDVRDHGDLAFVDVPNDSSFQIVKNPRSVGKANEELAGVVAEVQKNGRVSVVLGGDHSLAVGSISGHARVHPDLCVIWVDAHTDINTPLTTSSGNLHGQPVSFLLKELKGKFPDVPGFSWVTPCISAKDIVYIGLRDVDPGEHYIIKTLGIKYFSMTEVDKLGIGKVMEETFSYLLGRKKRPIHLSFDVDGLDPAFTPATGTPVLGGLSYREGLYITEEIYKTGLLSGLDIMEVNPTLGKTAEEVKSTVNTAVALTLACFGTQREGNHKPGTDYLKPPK
Briefly: co-IP; BV2 cells infected with ME49wt or ME49Δcdpk3 at MOI of 3; IP of Arginase-1 from infected cell lysates; detected with rabbit polyclonal TgCDPK3 antibody.

The target in assay [2] is TgCDPK3-GST (Toxoplasma gondii (ME49 strain)). Briefly: pull-down; TgCDPK3-GST or GST on glutathione magnetic agarose beads, incubated with purified Arginase-1-His at 4 °C for 2 h; washed with PBS with 1% Triton X-100; anti-His blot; both purified.
In assay [3] the target is TgCDPK3-GFP (Toxoplasma gondii (ME49 strain)). In words: co-IP; 293T lysates; anti-GFP antibody on Protein A + G affinity gel for 4 h; blotted with anti-GFP and anti-Arginase-1.

Results are given in words; binding and its absence hold for the method and conditions named. A result given as binding can be weak or reduced; the word gives no strength. For part of these data: Tags and fused reporters may be left off the sequences shown. For part of these data: In cells and extracts the contact can be indirect.

With “endogenous TgCDPK3 (Toxoplasma gondii (endogenous in ME49wt)) (enzyme)”, in assay [1], the binding entry is given as “binds”.

B1: Arginase-1-His (enzyme, UniProt P05089-1 1-322)
chain: MSAKSRTIGIIGAPFSKGQPRGGVEEGPTVLRKAGLLEKLKEQECDVKDYGDLPFADIPNDSPFQIVKNPRSVGKASEQLAGKVAEVKKNGRISLVLGGDHSLAIGSISGHARVHPDLGVIWVDAHTDINTPLTTTSGNLHGQPVSFLLKELKGKIPDVPGFSWVTPCISAKDIVYIGLRDVDPGEHYILKTLGIKYFSMTEVDRLGIGKVMEETLSYLLGRKKRPIHLSFDVDGLDPSFTPATGTPVVGGLTYREGLYITEEIYKTGLLSGLDIMEVNPSLGKTPEEVTRTVNTAVAITLACFGLAREGNHKPIDYLNPPK
Take B1: the binding entry in assay [2] is on record as “binds”.

B2: Arginase-1 (in HEK293T cells) (enzyme, UniProt P05089-1 1-322)
chain: B1 chain
Consider B2, for which the binding result in assay [3] is “binds”.

(Values after publication PMC12090600.)
